Measured values reported in patent publication US20130040291A1, “Detection and Quantification of Cellular Stress Response Resolution Pathway Expression and Functionality and the Effects of Agents or Conditions Thereupon” (priority 2011, published 2013).
At least one compound was matched to its structure with a doubt left.

Experiments:
CDNR4 cells [1] = test: Midway cloning efficiency (mCE), pre-calibrated stress conditions pro-survival pathway function; format: cell-based, murine; details: ENU 20 micrograms/ml 1 hour, 2-week phenotypic expression period
Description: mCE procedure #2 for cells that grow attached to a surface or basement membrane and/or that have the following growth characteristics when grown in tissue culture. The second method is novel and is recommended for use with epithelial cells, cells that form tight junctions, cells that produce mucinous material during in vitro cell culture, and/or cells that attach to a basement membrane. The latter characteristics are typical of epithelial cells but are not unique to this cell type alone.
This procedure is used to obtain an accurate cell count in vials of very dilute cells that are used for plating cloning efficiency plates. […]
For this procedure, the cell aliquot that was set aside during the initial cell counting is divided into 2 equal groups and diluted as follows. […] Approximately 12 to 15 hours later, the average number of cells per milliliter on the 6 or 12 well plates for both groups A and B is determined using light microscopy to visualize and count the cells. […] Viable cells are counted; dead cells or cell fragments are not counted. […] The final cloning efficiency is determined using the formula presented above (see phase 3 step 5). […]

CDNR4 cells [2] = format: cell-based, murine
Protocol: Following the cessation of the calibrated stress conditions exposure, the SR assay raw data is collected in the form of positive and negative wells (or cell growth sites) and in the form of viable or dead cell clones. The next steps of the assay involve expanding viable clones and determining their phenotypes. When the phenotype of interest being investigated in the SR assay is cell survival, the clones can be sub-classified using the testing listed in Table 6. This testing is performed as follows. […] Cell morphology (where informative for cell behavior and/or gene expression) and cell growth are monitored over the next 2, to 4 days to determine the response of the cells to these differing conditions. […]
To subgroup Phen-ah clones as Phen-alt-rev or Phen-alt-irr, a representative group of these clones is tested further by subjecting the clones to repeated rounds of exposure to the calibrated stress conditions. […] After each exposure round, the percentage of cells that are resistant to the stress inducing agent or condition is recorded. […]
At the end of 2 weeks, the cells were removed from the flasks with trypsin/EDTA and passed through a 20 to 25 micron pore size sterile Nytran filter. The cell suspension was evaluated by light microscopy for evidence of large clumps, and was re-filtered if necessary using a new sterile Nytran filter of the same size to remove any apparent large clumps of cells. […]

CCN(N=O)C(N)=O [ENU, ethylnitrosourea]
pre-stress-induction CE, ENU-exposed versus vehicle-exposed cells (CDNR4 cells [1]): no significant difference | Phen-HPRT^− clones among treated cells (CDNR4 cells [2]; ENU-treated cells, calibrated stress conditions at SRID-70% to 80%): no Phen-HPRT^− clones were found | total survival following induction of a 6-TG-mediated stress response (post-SR-induction SFs/CEs) (CDNR4 cells [2]; pre-exposure to ENU versus vehicle): significantly reduced
